Data published in publication PMC5539076.

Tested on: mCherry-AlpA
Experiment: EMSA
Settings: 0-16 uM protein, 500 ng DNA, EMSA: 30 min at 30 C, 10% native PAGE at 4 C, 150 V, binding buffer, recombinant protein, protein details: N-terminal mCherry, His-tag (pET16B-mCH-AlpA)

Row | Sequence | binding result (residual unspecific binding, smear of lower shifted bands) | binding result (sharp, highly shifted band)
1 | CGTATTATGTCTCGAGGTATTATGTACTTCGGTATTATGTACTTCGGTATTATGTACTTCGGTATTATGTACTTCGGTATTATGTACTTCGGTATTATGTA / ACATAATACCGAAGTACATAATACCGAAGTACATAATACCGAAGTACATAATACCGAAGTACATAATACCGAAGTACATAATACCTCGAGACATAATACGCATG [scrambled alpS] | binds more weakly | 
2 | CTTAATTGTCCTCGAGTTAATTGTCACTTCGTTAATTGTCACTTCGTTAATTGTCACTTCGTTAATTGTCACTTCGTTAATTGTCACTTCGTTAATTGTCCATGTCA / AGACATGGACAATTAACGAAGTGACAATTAACGAAGTGACAATTAACGAAGTGACAATTAACGAAGTGACAATTAACGAAGTGACAATTAACTCGAGGACAATTAAGCATG [alpS (seven alpS repeats)] |  | binds

The exact form of at least one protein or probe is not confirmed. The comparison behind a weaker result is the experiment's own reference, which may not be listed here.
